Taken from: PubChem BioAssay AID686938 (Drosophila RNAi Screening Center, 2013)
Test: 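Fly genes required for calcium entry once internal stores are emptied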 (primary screen). System: Drosophila S2R+ cells. Knock-down reagent: long dsRNA against Drosophila genes, about 0.25 µg dsRNA per well, roughly 10,000 cells. Duration: 5 days of knock-down before the calcium assay. Challenge: thapsigargin (SERCA pump blocker) to empty calcium stores; entry signal taken 4 min after adding it. Read-out: 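Per-well fluo-4 fluorescence in two replicates, unnormalised, measured in resting cells and 4 min after store depletion by the SERCA blocker thapsigargin; ratio of the two present in few wells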. Scale: calcium entry signal: higher = stronger calcium signal after store depletion; resting calcium signal: higher = higher resting calcium signal. Units: calcium entry signal in fluorescence units; resting calcium signal in fluorescence units. Rule for the call: 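Hit if the duplicate-averaged plate z-score for entry over resting signal is under −3; wells with weak total dye signal (Fmax z < −2) or more than 5 off-targets removed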. Calls: active = strongly reduced calcium entry; inactive = no strong reduction.
In all, the deposit lists about 23,000 reagents; below is a random part of those that have a named target and a result. Over the whole deposit, 75 (0.33%) got an active call. 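Raw plate signals without normalisation; calls rest on plate z-scores that were not deposited; ratio present for only 364 wells.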 Names joined by + are all predicted targets of the reagent. Not given: the dose of the treatment.

CG7600 [DRSC09681] gave calcium entry signal, replicate 1 = 4.66e7; calcium entry signal, replicate 2 = 2.89e7; resting calcium signal, replicate 1 = 2.85e7; resting calcium signal, replicate 2 = 1.37e7; inactive. Silencing of GatC + PolG2 [DRSC03312] gave: calcium entry signal, replicate 1 = 5.06e7; resting calcium signal, replicate 1 = 2.23e7; inactive. Knock-down of CSN3 [DRSC11859] gave: calcium entry signal, replicate 1 = 2.91e7; calcium entry signal, replicate 2 = 3.26e7; resting calcium signal, replicate 1 = 1.65e7; resting calcium signal, replicate 2 = 1.81e7; inactive. After knock-down of Tbcc [DRSC00223], the screen gave calcium entry signal, replicate 1 = 2.72e7; calcium entry signal, replicate 2 = 3.79e7; resting calcium signal, replicate 1 = 1.51e7; resting calcium signal, replicate 2 = 1.71e7; inactive. With knock-down of CG15734 [DRSC19701], the record shows calcium entry signal, replicate 1 = 3.20e7; calcium entry signal, replicate 2 = 5.15e7; resting calcium signal, replicate 1 = 1.67e7; resting calcium signal, replicate 2 = 2.18e7; inactive. Silencing of Obp50e [DRSC06434] resulted in: calcium entry signal, replicate 1 = 2.10e7; calcium entry signal, replicate 2 = 3.36e7; resting calcium signal, replicate 1 = 1.08e7; resting calcium signal, replicate 2 = 1.44e7; inactive.

After knock-down of Obp47a [DRSC06255], the record shows calcium entry signal, replicate 1 = 3.47e7; calcium entry signal, replicate 2 = 3.42e7; resting calcium signal, replicate 1 = 1.74e7; resting calcium signal, replicate 2 = 1.59e7; inactive. Silencing of CR43670 + CR43671 + CR43669 [DRSC01554] resulted in: calcium entry signal, replicate 1 = 1.75e7; calcium entry signal, replicate 2 = 3.47e7; resting calcium signal, replicate 1 = 1.13e7; resting calcium signal, replicate 2 = 1.51e7; inactive. CR43670 + CR43671 + CR43669 [DRSC01556] showed calcium entry signal, replicate 1 = 3.33e7; calcium entry signal, replicate 2 = 3.09e7; resting calcium signal, replicate 1 = 1.76e7; resting calcium signal, replicate 2 = 1.37e7; inactive. After knock-down of Adgf-E [DRSC05973] the results were calcium entry signal, replicate 1 = 2.54e7; calcium entry signal, replicate 2 = 4.01e7; resting calcium signal, replicate 1 = 1.44e7; resting calcium signal, replicate 2 = 1.77e7; inactive. With knock-down of EMC7 [DRSC07162], the record shows calcium entry signal, replicate 1 = 5.11e7; calcium entry signal, replicate 2 = 4.24e7; resting calcium signal, replicate 1 = 1.77e7; resting calcium signal, replicate 2 = 1.97e7; inactive. Silencing of Aps [DRSC10629] gave: calcium entry signal, replicate 1 = 2.74e7; calcium entry signal, replicate 2 = 3.48e7; resting calcium signal, replicate 1 = 1.41e7; resting calcium signal, replicate 2 = 1.56e7; inactive.

Depletion of GstT2 [DRSC06244] came out at: calcium entry signal, replicate 1 = 3.91e7; calcium entry signal, replicate 2 = 4.68e7; resting calcium signal, replicate 1 = 1.92e7; resting calcium signal, replicate 2 = 2.23e7; inactive. Depletion of Srp68 [DRSC10475] came out at: calcium entry signal, replicate 1 = 3.99e7; calcium entry signal, replicate 2 = 3.03e7; resting calcium signal, replicate 1 = 3.37e7; resting calcium signal, replicate 2 = 1.54e7; inactive.

Just “calcium entry signal, replicate 2” (2 entries from above):
EMC7 [DRSC07162]	4.24e7
Aps [DRSC10629]	3.48e7
